# In PubChem BioAssay AID1439 (NMMLSC, 2008):
# The chains behind the UniProt entries cited, without tags or fusion partners.
# UniProt P09471, whole entry, looked up: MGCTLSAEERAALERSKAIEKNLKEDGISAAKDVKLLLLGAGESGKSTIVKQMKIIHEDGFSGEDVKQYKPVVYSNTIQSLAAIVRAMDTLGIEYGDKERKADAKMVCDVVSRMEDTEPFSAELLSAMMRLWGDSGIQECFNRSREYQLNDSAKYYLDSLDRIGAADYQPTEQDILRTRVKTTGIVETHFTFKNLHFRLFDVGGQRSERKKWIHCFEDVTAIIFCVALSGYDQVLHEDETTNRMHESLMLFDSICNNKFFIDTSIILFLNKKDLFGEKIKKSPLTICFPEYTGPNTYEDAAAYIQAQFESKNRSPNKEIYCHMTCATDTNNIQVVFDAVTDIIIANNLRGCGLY
# Screen size: about 220,000 compounds; about 770 (0.35%) were called active. Inconclusive results, whose numbers are uncertain, are shown with a selection of clear calls. No stated cut-off is given here; in the data, active means binding response below about 49% or above about 150%; inconclusive means no clear call, values can overlap the other calls; inactive means in between.
# Target: Guanine nucleotide-binding protein G(o) subunit alpha (Homo sapiens) (UniProt P09471)
# Assay: RGS7-Galphao binding modulators, primary screen, biochemical, multiplexed bead flow cytometry (AID 1439);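 further: fluorescent Galphao held in activated GDP-AlF4 state binding bead-coupled RGS7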
# Conditions: at 10 µM, actives lie on both sides
row,SMILES,binding response (% of control)
1,CCCCCc1cc(=O)oc2c(C(CCN3CCN(c4ccccc4)CC3)c3ccc4c(c3)OCO4)c(OC)cc(OC)c12 (stereo unspecified),inconclusive: 63.5%
2,O=C(NCC1CCCO1)c1ccc2c3n(nc2c1)-c1ccccc1CO3 (stereo unspecified),inconclusive: 115%
3,O=C(O)c1cccc(-n2cccc2/C=C2/NC(=O)N(c3cccc(Cl)c3)C2=O)c1,inconclusive: 119%
4,COc1cc(CCC(=O)O)on1,inconclusive: 198%
5,CC(C)C(=O)N1CCC2(CC1)Oc1ccc(Cl)cc1C(=O)C21CC(c2ccccc2)=NO1 (stereo unspecified),inconclusive: 106%
6,CCOC(=O)[C@@H]1CCN(Cc2ccccc2)C[C@H]1c1ccccc1,inconclusive: -396%
7,CC(NC(=O)COc1ccc(N(C)S(=O)(=O)c2ccccc2)cc1)c1ccccc1 (stereo unspecified),inconclusive: 111%
8,O=C(O)CCC(=O)N1CCC[C@H]1C(=O)O,inconclusive: 123%
9,O=C(NN=C1C2CC3CC(C2)CC1C3)c1cccc(S(=O)(=O)N2CCOCC2)c1,inactive: 102%
10,O=C(COC(=O)c1nc(-c2ccccc2)n(-c2cccc(C(F)(F)F)c2)n1)NCc1cccs1,inactive: 97.1%
11,CCOc1ccccc1/C=N/NC(=O)c1cccc(S(=O)(=O)N2CCOCC2)c1,inconclusive: 84.2%
12,COc1cc(OC)c(C(=O)/C=C/c2ccccc2)c(O)c1O,inconclusive: 107%
13,CSC1=NCCCN1C(=O)c1c(-c2ccccc2Cl)noc1C,inconclusive: 124%
14,CNC(=S)N/N=C/c1ccc(-c2cccc(C(=O)O)c2)o1,inconclusive: 92.9%
15,NC(N)=N/N=C/c1ccccc1Cl,inconclusive: 118%
16,COc1cccc(NC(=O)C23CCC(C)(C(=O)O2)C3(C)C)c1 (stereo unspecified),inactive: 88.4%
17,COc1ccc(-c2[nH]ncc2CN2CCCN(C(=O)c3ccco3)CC2)cc1F,inconclusive: 89.3%
18,O=[N+]([O-])c1cccc(/C=C/c2nc[nH]c2[N+](=O)[O-])c1,inconclusive: 60.9%
19,CC(C)(O)C#Cc1ccc(C(=O)N2CCN(c3ccc(Cl)cc3)CC2)cc1,inactive: 102%
20,Cc1ccc(CN2CCN(/N=C/c3sccc3C)CC2)c(C)c1,inactive: 106%
21,Cc1[nH]n(-c2cccc([N+](=O)[O-])c2)c(=O)c1-c1ccccc1,inconclusive: 97.5%
22,CCOC(=O)C1=NN(C(=O)c2cccc(Br)c2)C(O)(C(C)(C)C)C1 (stereo unspecified),inconclusive: 92.9%
23,COc1ccccc1OCC(=O)NNc1c2ccccc2nc2ccccc12,inconclusive: 68.3%

row,SMILES,binding response (% of control)
1,COc1ccc(C(=O)Nc2ccccc2C(=O)N(Cc2ccco2)C(C(N)=O)C(C)C)cc1 (stereo unspecified),inactive: 140%
2,CSCCC1COC(c2cccs2)=N1 (stereo unspecified),inactive: 89.1%
3,CCC(=O)N/C(=N/c1nc(C)cc(C)n1)Nc1ccccc1,inconclusive: 89.9%
4,C/C=C/C(=O)N1CC2(CC(c3cccc(NC(=O)/C(C)=C/C)c3)=NO2)C[C@H]1C(N)=O (stereo partly specified),inconclusive: 128%
5,O=C(Nc1nc2c(F)cc(F)cc2s1)C1CC(=O)N(Cc2ccco2)C1 (stereo unspecified),inconclusive: 90.3%
6,COc1ccccc1NS(=O)(=O)c1cc(NC(=O)c2ccccc2F)ccc1N1CCOCC1,inconclusive: 103%
7,C=CCN(CC=C)C(=O)c1cccc(S(=O)(=O)N2c3ccccc3CC2C)c1 (stereo unspecified),inconclusive: 94.8%
8,CC(=O)c1cccc(NC(=O)COC(=O)C2=COCCO2)c1,inactive: 97%
9,CCCCc1cc(=O)oc2cc(OCc3nn[nH]n3)ccc12,inconclusive: 90.8%
10,N/C(CS(=O)(=O)c1ccccn1)=N\OC(=O)c1ccc(Cl)cc1,inconclusive: 129%
11,Cc1onc(C(=O)NN)c1-c1csc(COc2ccc(Cl)cc2)n1,inconclusive: 278%
12,CCOC(=O)c1nnn(-c2nonc2-n2cccc2)c1-c1cccc([N+](=O)[O-])c1,inactive: 102%
13,O=C(NC(=S)Nc1cc(S(=O)(=O)N2CCOCC2)ccc1N1CCOCC1)C1CCCC1,inactive: 99.1%
14,C/C(=N\NC(=S)Nc1ccccc1)C1Cc2ccccc2C(=O)O1 (stereo unspecified),inconclusive: 77.7%
15,Cc1ccc(CNC(=O)Nc2cccc(C)c2)cc1,inconclusive: 99.4%
16,Nc1[nH]nc2c1NN(c1ccc(Cl)cc1Cl)N2,inactive: 95.8%
17,COc1ccccc1NS(=O)(=O)c1cc(NC(=O)c2cc(=O)[nH]c3ccccc23)ccc1N1CCOCC1,inconclusive: 101%
18,COc1ccc([N+](=O)[O-])cc1NC(=S)NC(NC(C)=O)C(Cl)(Cl)Cl (stereo unspecified),inconclusive: 52.2%
19,O=C(COc1cccnc1[N+](=O)[O-])Nc1cccc(S(=O)(=O)N2CCCCC2)c1,inactive: 103%
20,CC(=O)c1cccc(S(=O)(=O)Nc2ccc3nc(C)sc3c2)c1,inconclusive: 107%
21,O=C(O)c1ccccc1C(=O)c1ccc(Br)s1,inactive: 103%
22,O=[N+]([O-])c1cccc(CSc2nnc3ccccn23)c1,inconclusive: 107%
23,CCOc1ncccc1C(=O)OC(C)C(=O)NC(=O)NC1CCCCC1 (stereo unspecified),inconclusive: 64%

# 23 entries from above, tab-delimited.
row	SMILES	binding response (% of control)
23	COc1ccccc1OCC(=O)NNc1c2ccccc2nc2ccccc12	inconclusive: 68.3%
1	COc1ccc(C(=O)Nc2ccccc2C(=O)N(Cc2ccco2)C(C(N)=O)C(C)C)cc1 (stereo unspecified)	inactive: 140%
2	CSCCC1COC(c2cccs2)=N1 (stereo unspecified)	inactive: 89.1%
3	CCC(=O)N/C(=N/c1nc(C)cc(C)n1)Nc1ccccc1	inconclusive: 89.9%
4	C/C=C/C(=O)N1CC2(CC(c3cccc(NC(=O)/C(C)=C/C)c3)=NO2)C[C@H]1C(N)=O (stereo partly specified)	inconclusive: 128%
5	O=C(Nc1nc2c(F)cc(F)cc2s1)C1CC(=O)N(Cc2ccco2)C1 (stereo unspecified)	inconclusive: 90.3%
6	COc1ccccc1NS(=O)(=O)c1cc(NC(=O)c2ccccc2F)ccc1N1CCOCC1	inconclusive: 103%
7	C=CCN(CC=C)C(=O)c1cccc(S(=O)(=O)N2c3ccccc3CC2C)c1 (stereo unspecified)	inconclusive: 94.8%
8	CC(=O)c1cccc(NC(=O)COC(=O)C2=COCCO2)c1	inactive: 97%
9	CCCCc1cc(=O)oc2cc(OCc3nn[nH]n3)ccc12	inconclusive: 90.8%
10	N/C(CS(=O)(=O)c1ccccn1)=N\OC(=O)c1ccc(Cl)cc1	inconclusive: 129%
11	Cc1onc(C(=O)NN)c1-c1csc(COc2ccc(Cl)cc2)n1	inconclusive: 278%
12	CCOC(=O)c1nnn(-c2nonc2-n2cccc2)c1-c1cccc([N+](=O)[O-])c1	inactive: 102%
13	O=C(NC(=S)Nc1cc(S(=O)(=O)N2CCOCC2)ccc1N1CCOCC1)C1CCCC1	inactive: 99.1%
14	C/C(=N\NC(=S)Nc1ccccc1)C1Cc2ccccc2C(=O)O1 (stereo unspecified)	inconclusive: 77.7%
15	Cc1ccc(CNC(=O)Nc2cccc(C)c2)cc1	inconclusive: 99.4%
16	Nc1[nH]nc2c1NN(c1ccc(Cl)cc1Cl)N2	inactive: 95.8%
17	COc1ccccc1NS(=O)(=O)c1cc(NC(=O)c2cc(=O)[nH]c3ccccc23)ccc1N1CCOCC1	inconclusive: 101%
18	COc1ccc([N+](=O)[O-])cc1NC(=S)NC(NC(C)=O)C(Cl)(Cl)Cl (stereo unspecified)	inconclusive: 52.2%
19	O=C(COc1cccnc1[N+](=O)[O-])Nc1cccc(S(=O)(=O)N2CCCCC2)c1	inactive: 103%
20	CC(=O)c1cccc(S(=O)(=O)Nc2ccc3nc(C)sc3c2)c1	inconclusive: 107%
21	O=C(O)c1ccccc1C(=O)c1ccc(Br)s1	inactive: 103%
22	O=[N+]([O-])c1cccc(CSc2nnc3ccccn23)c1	inconclusive: 107%

# (list continues)

row,SMILES,binding response (% of control)
1,O=C(COC(=O)c1ccco1)NCc1ccc2c(c1)OCO2,inconclusive: -97.7%
2,CCCCC1=NN(C(=O)c2cccnc2)C(O)(C(F)(F)F)C1 (stereo unspecified),inconclusive: 60%
3,COc1ccc(/C=N/NC(=O)c2cccnc2)cc1COc1ccc([N+](=O)[O-])cc1,inconclusive: 102%
4,O=C(O)c1ccc(N/N=C/C(Br)=C/c2ccccc2)cc1,inconclusive: -821%
5,CNc1ccc([N+](=O)[O-])cc1C(=O)O,inconclusive: 109%
6,Cc1ccc(CNC(=O)c2ccc(CNc3c(N4CCCC4)c(=O)c3=O)cc2)cc1,inactive: 99.9%
7,Cc1ccc(C#CC[N+]2(C)CCCCC2)cc1,inconclusive: -676%
8,O=C(Cc1ccc([N+](=O)[O-])cc1)N1N=C2CCCCC2C1(O)C(F)(F)F (stereo unspecified),inconclusive: 102%
9,CCOC(=O)c1cc(C#N)c(SCC(=O)Nc2ccc(C(C)=O)cc2)[nH]c1=O,inconclusive: 99.7%
10,C/C(=N/NC(=O)CCC(=O)Nc1cccc(Cl)c1)c1ccc(C)cc1,inactive: 97.5%
11,CC(Cc1cccs1)NC(=O)Nc1ccc([N+](=O)[O-])cc1 (stereo unspecified),inconclusive: 93.8%
12,COC(=O)CC(c1ccc(OC)c(OC)c1)c1ccc(OC)c(OC)c1,inconclusive: 84.3%
13,Cc1noc(C)c1-c1nc(CSc2ccc(Cl)cc2)no1,inconclusive: 117%
14,CCCCNC(=S)N1CCN(c2ccccc2Cl)CC1,inconclusive: 116%
15,Cc1ccc(S(=O)(=O)N2CCSC2=Nc2ccccc2)cc1,inconclusive: 99.5%
16,O=C1CC(N(CCc2ccccc2)C(=S)Nc2ccccc2)C(=O)N1c1ccc(F)cc1 (stereo unspecified),inconclusive: 102%
17,C=CCn1c(-c2cc(-c3ccc(C)cc3)nc3ccccc23)n[nH]c1=S,inconclusive: 109%
18,O=C(Nc1ccc2[nH]ccc2c1)c1ccc(F)cc1,inconclusive: 39.1%
19,C=CCn1c(=NC(=O)c2cccc(N3C(=O)CCC3=O)c2)sc2cccc(OC)c21,inconclusive: 240%
20,Cc1nn(-c2ccccc2)nc1CNS(C)(=O)=O,inconclusive: 94.6%
21,O=C(/C=C/c1ccccc1)Oc1cccc(C(=S)N2CCOCC2)c1,inactive: 104%
22,CCOc1ccccc1NC(=O)CNC(=O)Cc1ccccc1,inconclusive: 113%
23,CCOCCCNC(=O)C(NC(=O)Cc1cccs1)c1ccccc1 (stereo unspecified),inconclusive: 119%

row,SMILES,binding response (% of control)
1,Cc1ccc(NC(=O)CC(N)=S)cc1,inconclusive: 85%
2,CC(=O)Nc1ccc(NC(=O)CSc2ncnc3c2cnn3Cc2ccccc2)cc1,inconclusive: 105%
3,Cc1nc(-c2ccccc2Cl)sc1C(=O)/C=C/N(C)C,inactive: 104%
4,O=C(c1ccc(Br)cc1)N(c1ccccn1)C1CCCCC1,inconclusive: 82.9%
5,O=C(c1ccccc1)c1ccccc1N1C(=O)C=CC1=O,inconclusive: 133%
6,Cn1nccc1NC(=O)CC1(CC(=O)O)CCCCC1,inconclusive: 94.8%
7,CC(=O)c1ccc(OCC(O)CN2CCN(Cc3ccc4c(c3)OCO4)CC2)cc1 (stereo unspecified),inconclusive: 122%
8,CCOc1ncccc1C(=O)NCc1ccccc1F,inconclusive: 69.5%
9,Cc1cc(C)c(NC(=S)NC(CO)(CO)CO)c(C)c1,inconclusive: 92.9%
10,Cc1onc(-c2ccccc2)c1CNC(=O)CN1C(=O)c2ccccc2C1=O,inconclusive: 77.6%
11,Cc1c(CCC(=O)O)c(=O)oc2c(C)c(OCc3cc4c(cc3Cl)OCO4)ccc12,inconclusive: 92.3%
12,COc1ccc2c(C#N)c3ccccn3c2c1,inconclusive: 95%
13,COc1ccc(OC(C)C(=O)N2CCCc3ccccc32)cc1 (stereo unspecified),inconclusive: 81.9%
14,CNc1nc(-c2c[nH]c3ccccc23)cs1,active: 151% [activator]
15,CCOC(=O)/C(C#N)=C1\C(=O)N(Cc2ccccc2)c2ccccc21,inconclusive: 200%
16,CC1=C(C(=O)OCC(C)C)C(c2ccc(Br)s2)NC(=O)N1 (stereo unspecified),inconclusive: 106%
17,CC1=C(C#N)C(c2ccc(O)cc2)C(C#N)=C(C)N1,inconclusive: 41.3%
18,FC(F)C(F)(F)c1cc(-c2ccc(Cl)cc2)n[nH]1,inconclusive: 80.8%
19,Cc1ccc(/C=N/N2CCOCC2)s1,inconclusive: 103%
20,COC(=O)C(Cc1ccccc1)NS(=O)(=O)c1ccccc1Br (stereo unspecified),inconclusive: 104%
21,COc1ccc2c(C)cc(SCC(=O)Nc3cc(C(N)=O)cc(C(N)=O)c3)nc2c1,inconclusive: 110%
22,O=C(NC(=S)Nc1ccc2oc(=O)ccc2c1)c1cc2ccccc2o1,inconclusive: 146%
